Results are given in words; binding and its absence hold for the method and conditions named. In cells and extracts the contact can be indirect. A yes stands for co-enrichment or nearness to the bait. Other partners may have been found. Blank lines part the entries; values can stand above or below the binder they belong to.
How the values were obtained:
Assay in all cases: affinity purification with mass spectrometry
[1] = molecular target: FLAG-tagged Bolinopsis mikado β-catenin (B. mikado)
[2] = molecular target: FLAG-tagged Ephydatia fluviatilis β-catenin (E. fluviatilis)
[3] = molecular target: FLAG-tagged Nematostella vectensis β-catenin (N. vectensis)
[4] = molecular target: FLAG-tagged Xenopus laevis β-catenin (X. laevis) (UniProt P26233)

The chains behind the UniProt entries cited, without tags or fusion partners.
UniProt P26233: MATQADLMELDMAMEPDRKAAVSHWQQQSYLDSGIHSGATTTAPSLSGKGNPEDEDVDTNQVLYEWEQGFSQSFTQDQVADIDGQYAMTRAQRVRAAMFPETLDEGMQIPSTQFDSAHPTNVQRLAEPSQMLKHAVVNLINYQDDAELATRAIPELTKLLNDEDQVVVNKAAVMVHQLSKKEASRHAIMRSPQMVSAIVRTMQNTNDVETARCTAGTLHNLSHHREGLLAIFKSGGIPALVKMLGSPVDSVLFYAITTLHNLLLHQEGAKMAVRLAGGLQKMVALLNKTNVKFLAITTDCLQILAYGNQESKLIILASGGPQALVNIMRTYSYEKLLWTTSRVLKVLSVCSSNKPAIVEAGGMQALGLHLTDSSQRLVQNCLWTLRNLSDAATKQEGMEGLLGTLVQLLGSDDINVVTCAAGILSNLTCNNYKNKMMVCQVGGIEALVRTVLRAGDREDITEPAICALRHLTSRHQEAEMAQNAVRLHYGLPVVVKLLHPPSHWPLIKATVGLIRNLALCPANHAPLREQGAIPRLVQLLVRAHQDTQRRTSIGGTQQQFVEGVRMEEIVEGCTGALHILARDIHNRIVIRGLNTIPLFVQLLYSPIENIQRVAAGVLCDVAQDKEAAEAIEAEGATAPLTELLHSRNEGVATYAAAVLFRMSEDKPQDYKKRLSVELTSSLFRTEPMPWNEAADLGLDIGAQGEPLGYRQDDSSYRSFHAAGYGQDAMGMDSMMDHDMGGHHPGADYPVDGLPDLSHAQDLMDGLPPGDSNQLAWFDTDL

binding [1]: binds
binding [2]: binds
binding [3]: binds
binding [4]: binds
B1: MOCS3 (protein, UniProt Q58E95 1-451)
chain: MDETDSQITCADSSVDKLSHLKRNEVKSCPLPELHGADEMLPELNKSCLTNPDILRYSRQLVLPDLGVQGQLKLSKASVLVIGCGGLGCPVAQYLAASGIGRLGLLDYDVVEMSNLHRQVLHGENRLGMSKSVSVAKTLRKLNSAVVYLPYHISLNPENALQIIQQYDIIADCSDNVPTRYLVNDTCVLAGKPLVSASALRWEGQLTVYNYHQGPCYRCLFPKPPPSETVTNCADGGVLGIVPGIIGSLQALEVLKIASGMAPSYSGVLLMFDALEGRFRNIKIRGKKNDCAACSNPSETAILQDYEAFCGSSASDKCRMLRLLSRDERLSVEEYKRLLDDHVPHILMDVRPQPEVDICRLPHSIHIPLKGLEEKNEKWVSFLRTKIAELITAGNRTEKTVITICKLGNDSQIAVKILQDLFGKEDLFIAKDVQGGLMAWAENIDPMFPRY

binding [3]: binds
binding [4]: binds
B2: HAUS8 (protein, UniProt Q0IHJ3 1-367)
chain: MSEAGVAPIEDGSQNSSGGSSGDAALKKSKGGAKVVKSRYMQIGRSKVSKNSLANTTVCSGGKVPERGSGGTPTRRSLAPHKAKITAAVPLPALDGSIFTKEDLQSTLLDGHRIARPDLDLSVINDRTLQKITPRPVVTSEQKKPKRDTTPVNLVPEDMVEMIESQTLLLTYLTIKMQKNLFRLEEKAERNLLLVNDQKDQLQETIHMMKRDLTLLQREERLRDLIEKQDEVLTPVVTSKDPFKDNYTTFATALDSTRHQLAIKNIHITGNRHRYLEELQKHLAITKSLLEEIMPSHASENAESFDTIKDLENIVLKTDEELARSFRQILDLSFKVNKEISLQSQKAVEETCESALVRQWYFDGSLP
